{"sequences": {"note": "By UniProt entry, the sequences of proteins in these tests, tags left out.", "UniProt Q61221": "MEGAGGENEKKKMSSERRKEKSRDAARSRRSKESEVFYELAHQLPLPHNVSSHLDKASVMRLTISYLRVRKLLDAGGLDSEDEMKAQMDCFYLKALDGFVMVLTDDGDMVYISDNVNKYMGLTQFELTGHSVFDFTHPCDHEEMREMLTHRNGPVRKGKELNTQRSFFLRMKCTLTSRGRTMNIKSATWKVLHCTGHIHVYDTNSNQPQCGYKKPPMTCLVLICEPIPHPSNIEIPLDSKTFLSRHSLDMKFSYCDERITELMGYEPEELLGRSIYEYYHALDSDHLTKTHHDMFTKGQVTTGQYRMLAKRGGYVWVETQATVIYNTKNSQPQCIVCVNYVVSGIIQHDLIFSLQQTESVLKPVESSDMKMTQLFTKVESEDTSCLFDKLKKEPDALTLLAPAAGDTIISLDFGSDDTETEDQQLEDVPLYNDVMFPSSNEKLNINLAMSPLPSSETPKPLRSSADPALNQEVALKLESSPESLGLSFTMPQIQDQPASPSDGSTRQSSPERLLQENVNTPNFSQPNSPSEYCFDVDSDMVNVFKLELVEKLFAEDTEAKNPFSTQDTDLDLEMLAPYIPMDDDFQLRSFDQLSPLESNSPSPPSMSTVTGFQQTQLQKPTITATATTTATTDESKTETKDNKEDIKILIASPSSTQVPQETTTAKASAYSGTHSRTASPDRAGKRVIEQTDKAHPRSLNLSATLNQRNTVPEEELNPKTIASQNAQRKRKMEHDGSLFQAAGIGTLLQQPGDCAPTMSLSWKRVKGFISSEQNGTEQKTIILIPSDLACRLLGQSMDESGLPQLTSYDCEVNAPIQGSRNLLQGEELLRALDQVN", "UniProt P02340": "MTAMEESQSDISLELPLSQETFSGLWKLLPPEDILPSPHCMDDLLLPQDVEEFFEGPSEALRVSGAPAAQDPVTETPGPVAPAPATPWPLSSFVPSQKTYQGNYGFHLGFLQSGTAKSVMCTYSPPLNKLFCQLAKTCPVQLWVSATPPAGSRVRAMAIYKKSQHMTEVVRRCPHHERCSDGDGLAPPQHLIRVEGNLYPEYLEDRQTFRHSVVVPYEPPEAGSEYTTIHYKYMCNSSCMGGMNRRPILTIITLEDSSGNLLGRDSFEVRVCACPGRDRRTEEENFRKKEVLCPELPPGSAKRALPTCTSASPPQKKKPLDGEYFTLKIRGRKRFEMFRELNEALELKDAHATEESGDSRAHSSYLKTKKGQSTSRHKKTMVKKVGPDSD"}, "source": "paper PMC11876171", "biological_target": "hypoxia-inducible factor-1α (mouse (endogenous in SV40 MES 13)) (UniProt Q61221)", "assay": "co-IP; anti-HIF-1α antibody (2 μg for 1 mg total protein) added to NP-40 lysates of mesangial cells of each group overnight at 4°C, magnetic beads 1 h at room temperature; Western blot for p53", "note": "Results are given in words; binding and its absence hold for the method and conditions named. Binding seen in cells or lysates may run through a third protein. Some entries that bind do so weakly or less than the wild type.", "data": [{"substance": "p53 (from UniProt P02340 1-390)", "values": [{"measurement": "binding", "value": "binds"}]}]}
